In the supplement of paper PMC7661543:
± gives the standard deviation of the averaged measurements. The effect of the compound repeats well; differences between the knockouts mostly do not.

Test system: MDA-MB-231
Assay: relative cell number vs DMSO control (72 h) (% of DMSO); higher = less growth inhibition (more cells)
Protocol: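 QMAP-Seq: a pool of 5 breast cancer cell lines (ZR-75-1, SKBR3, HCC-38, MDA-MB-231, BT-20), each carrying 12 doxycycline-inducible Cas9 sgRNA perturbations (11 knockouts plus non-targeting sgNT), was treated with compounds for 72 h at four 10-fold doses (10 nM-10 uM or 1 nM-1 uM range). Barcodes were amplified and sequenced, and cell number was interpolated from 293T spike-in standard curves. The result is expressed as % of the median of DMSO wells. Two biological replicates.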

C#Cc1cccc(Nc2ncnc3cc(OCCOC)c(OCCOC)cc23)c1 [Erlotinib]
Conditions	relative cell number
sgRNA knockout: sgATF3, 10 nM	109 ± 14
sgRNA knockout: sgATF3, 100 nM	105 ± 5.2
sgRNA knockout: sgATF3, 1000 nM	97.8 ± 2.9
sgRNA knockout: sgATF3, 10000 nM	88.7 ± 12
sgRNA knockout: sgATF4, 10 nM	124.3 ± 0.71
sgRNA knockout: sgATF4, 100 nM	113 ± 8.3
sgRNA knockout: sgATF4, 1000 nM	87.4 ± 10
sgRNA knockout: sgATF4, 10000 nM	104 ± 1.6
sgRNA knockout: sgATF6, 10 nM	114 ± 12
sgRNA knockout: sgATF6, 100 nM	75.8 ± 7.4
sgRNA knockout: sgATF6, 1000 nM	110 ± 14
sgRNA knockout: sgATF6, 10000 nM	83 ± 16
sgRNA knockout: sgATG7, 10 nM	116 ± 15
sgRNA knockout: sgATG7, 100 nM	88.2 ± 4
sgRNA knockout: sgATG7, 1000 nM	88.3 ± 14
sgRNA knockout: sgATG7, 10000 nM	89.5 ± 10
sgRNA knockout: sgERN1, 10 nM	168 ± 5.7
sgRNA knockout: sgERN1, 100 nM	102 ± 19
sgRNA knockout: sgERN1, 1000 nM	96.7 ± 9.7
sgRNA knockout: sgERN1, 10000 nM	83.4 ± 11
sgRNA knockout: sgHSF1, 10 nM	98.9 ± 31
sgRNA knockout: sgHSF1, 100 nM	95.05 ± 0.74
sgRNA knockout: sgHSF1, 1000 nM	101 ± 38
sgRNA knockout: sgHSF1, 10000 nM	83.9 ± 22
sgRNA knockout: sgHSF2, 10 nM	123 ± 53
sgRNA knockout: sgHSF2, 100 nM	96 ± 29
sgRNA knockout: sgHSF2, 1000 nM	107 ± 16
sgRNA knockout: sgHSF2, 10000 nM	80.8 ± 3.5
sgRNA knockout: sgKEAP1, 10 nM	104 ± 3.1
sgRNA knockout: sgKEAP1, 100 nM	109 ± 5.4
sgRNA knockout: sgKEAP1, 1000 nM	97.2 ± 18
sgRNA knockout: sgKEAP1, 10000 nM	87.3 ± 20
sgRNA knockout: sgNFE2L2, 10 nM	128 ± 19
sgRNA knockout: sgNFE2L2, 100 nM	91.2 ± 12
sgRNA knockout: sgNFE2L2, 1000 nM	100 ± 16
sgRNA knockout: sgNFE2L2, 10000 nM	81.1 ± 7.8
sgRNA knockout: sgSLC35F2, 10 nM	108 ± 35
sgRNA knockout: sgSLC35F2, 100 nM	98.1 ± 18
sgRNA knockout: sgSLC35F2, 1000 nM	82.8 ± 2.2
sgRNA knockout: sgSLC35F2, 10000 nM	72.6 ± 0.74
sgRNA knockout: sgXBP1, 10 nM	128 ± 31
sgRNA knockout: sgXBP1, 100 nM	91.2 ± 3.6
sgRNA knockout: sgXBP1, 1000 nM	111 ± 9.8
sgRNA knockout: sgXBP1, 10000 nM	81.1 ± 23

COc1cc2nccc(Oc3ccc(NC(=O)C4(C(=O)Nc5ccc(F)cc5)CC4)cc3)c2cc1OC [Cabozantinib]
Conditions	relative cell number
sgRNA knockout: sgATF3, 10 nM	102 ± 9
sgRNA knockout: sgATF3, 100 nM	117 ± 26
sgRNA knockout: sgATF3, 1000 nM	113 ± 29
sgRNA knockout: sgATF3, 10000 nM	37.3 ± 14
sgRNA knockout: sgATF4, 10 nM	148 ± 14
sgRNA knockout: sgATF4, 100 nM	91.9 ± 25
sgRNA knockout: sgATF4, 1000 nM	83.6 ± 16
sgRNA knockout: sgATF4, 10000 nM	44.2 ± 9.9
sgRNA knockout: sgATF6, 10 nM	103 ± 2.6
sgRNA knockout: sgATF6, 100 nM	94.8 ± 21
sgRNA knockout: sgATF6, 1000 nM	113 ± 18
sgRNA knockout: sgATF6, 10000 nM	30.7 ± 11
sgRNA knockout: sgATG7, 10 nM	91.8 ± 14
sgRNA knockout: sgATG7, 100 nM	81.1 ± 6
sgRNA knockout: sgATG7, 1000 nM	101 ± 20
sgRNA knockout: sgATG7, 10000 nM	26.6 ± 3.2
sgRNA knockout: sgERN1, 10 nM	108 ± 12
sgRNA knockout: sgERN1, 100 nM	106 ± 23
sgRNA knockout: sgERN1, 1000 nM	97.51 ± 0.92
sgRNA knockout: sgERN1, 10000 nM	37.2 ± 3.6
sgRNA knockout: sgHSF1, 10 nM	98.4 ± 14
sgRNA knockout: sgHSF1, 100 nM	122 ± 12
sgRNA knockout: sgHSF1, 1000 nM	102 ± 3.1
sgRNA knockout: sgHSF1, 10000 nM	42 ± 22
sgRNA knockout: sgHSF2, 10 nM	82.7 ± 9.6
sgRNA knockout: sgHSF2, 100 nM	125 ± 13
sgRNA knockout: sgHSF2, 1000 nM	119 ± 26
sgRNA knockout: sgHSF2, 10000 nM	40 ± 16
sgRNA knockout: sgKEAP1, 10 nM	82.7 ± 6.6
sgRNA knockout: sgKEAP1, 100 nM	93.3 ± 11
sgRNA knockout: sgKEAP1, 1000 nM	80.5 ± 6.1
sgRNA knockout: sgKEAP1, 10000 nM	40.5 ± 32
sgRNA knockout: sgNFE2L2, 10 nM	92.1 ± 2.9
sgRNA knockout: sgNFE2L2, 100 nM	90.2 ± 9.6
sgRNA knockout: sgNFE2L2, 1000 nM	110 ± 32
sgRNA knockout: sgNFE2L2, 10000 nM	31.8 ± 10
sgRNA knockout: sgSLC35F2, 10 nM	97 ± 11
sgRNA knockout: sgSLC35F2, 100 nM	93.9 ± 11
sgRNA knockout: sgSLC35F2, 1000 nM	90.3 ± 3.9
sgRNA knockout: sgSLC35F2, 10000 nM	38.7 ± 20
sgRNA knockout: sgXBP1, 10 nM	107 ± 3.2
sgRNA knockout: sgXBP1, 100 nM	75.9 ± 4.2
sgRNA knockout: sgXBP1, 1000 nM	103 ± 5.9
sgRNA knockout: sgXBP1, 10000 nM	37.2 ± 8

COc1cc2c(cc1-c1c(C)noc1C)ncc1[nH]c(=O)n([C@H](C)c3ccccn3)c12 [IBET151]
Conditions	relative cell number
sgRNA knockout: sgATF3, 10 nM	82 ± 12
sgRNA knockout: sgATF3, 100 nM	87.4 ± 2.2
sgRNA knockout: sgATF3, 1000 nM	51 ± 14
sgRNA knockout: sgATF3, 10000 nM	21.7 ± 7.2
sgRNA knockout: sgATF4, 10 nM	99.9 ± 7.9
sgRNA knockout: sgATF4, 100 nM	86.6 ± 20
sgRNA knockout: sgATF4, 1000 nM	60.3 ± 23
sgRNA knockout: sgATF4, 10000 nM	28.5 ± 18
sgRNA knockout: sgATF6, 10 nM	87.3 ± 12
sgRNA knockout: sgATF6, 100 nM	82.2 ± 2.7
sgRNA knockout: sgATF6, 1000 nM	45.3 ± 16
sgRNA knockout: sgATF6, 10000 nM	19.9 ± 2.3
sgRNA knockout: sgATG7, 10 nM	89.4 ± 4.2
sgRNA knockout: sgATG7, 100 nM	78.5 ± 22
sgRNA knockout: sgATG7, 1000 nM	42.4 ± 7.3
sgRNA knockout: sgATG7, 10000 nM	19.2 ± 2.3
sgRNA knockout: sgERN1, 10 nM	88.9 ± 3.7
sgRNA knockout: sgERN1, 100 nM	77.4 ± 2
sgRNA knockout: sgERN1, 1000 nM	36.5 ± 0.41
sgRNA knockout: sgERN1, 10000 nM	28.1 ± 4.2
sgRNA knockout: sgHSF1, 10 nM	71.9 ± 3.2
sgRNA knockout: sgHSF1, 100 nM	92.6 ± 23
sgRNA knockout: sgHSF1, 1000 nM	36.3 ± 1.1
sgRNA knockout: sgHSF1, 10000 nM	27.2 ± 3.3
sgRNA knockout: sgHSF2, 10 nM	72.9 ± 1.8
sgRNA knockout: sgHSF2, 100 nM	86.8 ± 22
sgRNA knockout: sgHSF2, 1000 nM	40.8 ± 6
sgRNA knockout: sgHSF2, 10000 nM	23.9 ± 1.9
sgRNA knockout: sgKEAP1, 10 nM	98.2 ± 13
sgRNA knockout: sgKEAP1, 100 nM	87.7 ± 10
sgRNA knockout: sgKEAP1, 1000 nM	42.3 ± 10
sgRNA knockout: sgKEAP1, 10000 nM	16 ± 1
sgRNA knockout: sgNFE2L2, 10 nM	87.3 ± 22
sgRNA knockout: sgNFE2L2, 100 nM	63.4 ± 12
sgRNA knockout: sgNFE2L2, 1000 nM	39.7 ± 5.8
sgRNA knockout: sgNFE2L2, 10000 nM	21.2 ± 4
sgRNA knockout: sgSLC35F2, 10 nM	88.3 ± 2.7
sgRNA knockout: sgSLC35F2, 100 nM	49.1 ± 1.8
sgRNA knockout: sgSLC35F2, 1000 nM	33.8 ± 1.9
sgRNA knockout: sgSLC35F2, 10000 nM	18.2 ± 1.6
sgRNA knockout: sgXBP1, 10 nM	79.78 ± 0.68
sgRNA knockout: sgXBP1, 100 nM	74.4 ± 22
sgRNA knockout: sgXBP1, 1000 nM	36.5 ± 6.1
sgRNA knockout: sgXBP1, 10000 nM	19 ± 3.5
